Among the data in article doi:10.1101/2025.06.18.660405 (bioRxiv, 2025) are binding values, retold here.

Chains of the proteins cited; added tags and fusions are not shown.
UniProt P03612: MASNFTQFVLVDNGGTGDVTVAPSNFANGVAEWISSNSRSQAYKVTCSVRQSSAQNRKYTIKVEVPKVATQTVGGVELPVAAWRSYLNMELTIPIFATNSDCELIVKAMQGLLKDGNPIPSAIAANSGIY

No constants are given. Whether binding was seen depends on the method and setting.

The target in the assay is MBP fused to the viral MS2 coat protein (viral (MS2)) (UniProt P03612). The experiment in a line: pull-down.

B1: dephosphorylated Nopp140 (treated with calf intestinal alkaline phosphatase) (protein, UniProt Q14978 1-699)
chain: MADAGIRRVVPSDLYPLVLGFLRDNQLSEVANKFAKATGATQQDANASSLLDIYSFWLKSAKVPERKLQANGPVAKKAKKKASSSDSEDSSEEEEEVQGPPAKKAAVPAKRVGLPPGKAAAKASESSSSEESSDDDDEEDQKKQPVQKGVKPQAKAAKAPPKKAKSSDSDSDSSSEDEPPKNQKPKITPVTVKAQTKAPPKPARAAPKIANGKAASSSSSSSSSSSSDDSEEEKAAATPKKTVPKKQVVAKAPVKAATTPTRKSSSSEDSSSDEEEEQKKPMKNKPGPYSSVPPPSAPPPKKSLGTQPPKKAVEKQQPVESSEDSSDESDSSSEEEKKPPTKAVVSKATTKPPPAKKAAESSSDSSDSDSSEDDEAPSKPAGTTKNSSNKPAVTTKSPAVKPAAAPKQPVGGGQKLLTRKADSSSSEEESSSSEEEKTKKMVATTKPKATAKAALSLPAKQAPQGSRDSSSDSDSSSSEEEEEKTSKSAVKKKPQKVAGGAAPSKPASAKKGKAESSNSSSSDDSSEEEEEKLKGKGSPRPQAPKANGTSALTAQNGKAAKNSEEEEEEKKKAAVVVSKSGSLKKRKQNEAAKEAETPQAKKIKLQTPNTFPKRKKGEKRASSPFRRVREEEIEVDSRVADNSFDAKRGAAGDWGERANQVLKFTKGKSFRHEKTKKKRGSYRGGSISVQVNSIKFDSE
Take B1: the binding result is “no binding”.
